## Results of single-concentration screens

Data taken from ChEMBL document CHEMBL3988442, “University of Dundee, Small-Polar-MMV Screening Library” (2021).

Results are given as percent effect. The controls that fix the scale are not given in the record; negative values are as filed. Compounds were drawn at random from those tested, without regard to their results. A dash means the value is not listed here; it may have been measured.

T. brucei: 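Whole-parasite assay of Trypanosoma brucei over 72 hours; the read-out is not stated. Tested at 30 µM. Direction is inferred from retests: higher values go with stronger inhibition. Values scatter widely below zero; nearly all retest evidence comes from the higher of the two concentrations used. Of about 64,000 compounds tested this way, about 940 (1.5%) reached 50% or more in at least one test.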
Toxoplasma: 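Assay of Toxoplasma gondii numbers, read through their beta-galactosidase reporter with a colour substrate. Tested at 10 µM. Higher reads as fewer parasites (inferred from which compounds were picked for retests). Of about 67,000 compounds tested this way, about 260 (0.38%) reached 50% or more in at least one test.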

structure	T. brucei	Toxoplasma
CC(C)N(C)S(=O)(=O)N(Cc1cccs1)Cc1cccs1	-63.87	7.369
COc1ccncc1NC(=O)C1(c2ccc(F)cc2)CCC1	6.013	4.463
CC[C@H](Cn1ncc2ccccc2c1=O)NC(=O)c1cnc(C)cn1	-10.24	33.66
COc1ncc(C(=O)NCc2ccccc2)cn1	-30	-6.948
CC(=O)c1ccc(C(=O)Nc2ccnc(N(C)C)n2)cc1	11.15	-11.43
CC(C)C(=O)N1CCCC2(CCCN2Cc2cccnc2)C1 (stereo not drawn)	-26.93	0.08399
Cc1onc(-c2ccncc2)c1C(=O)NC1CCCOC1 (stereo not drawn)	-2.792	5.857
CC(C)N(C)C(=O)c1ccc(CNc2cncc(Cl)n2)cc1	-24.53	3.563
CN(C)c1cccc(CNC(=O)Nc2cc(C#N)ccc2Cl)n1	-223.5	-8.468
COCC1CC2(CCN(Cc3nccs3)CC2)CN1Cc1ccccn1.O=C(O)C(F)(F)F.O=C(O)C(F)(F)F.O=C(O)C(F)(F)F (stereo not drawn)	-26.07	-22.86
O=c1c2ccccc2nc2n1C(CSc1cccc(C(F)(F)F)c1)CN2 (stereo not drawn)	-	-33.64
CCn1cc(CN2CCN(CC(O)c3cc(C)ccc3C)CC2)c(C)n1 (stereo not drawn)	2.564	12.74
CN(Cc1ccncn1)C(=O)CCC(=O)NC1CCCC1	0.9047	14.2
O=C(O)C(F)(F)F.O=C(O)C(F)(F)F.[H][C@@]12COC[C@]1([H])[C@H](OCc1ccccn1)CN2Cc1ccc(OC)cc1	-	-3.389
CNc1cccc(C2CCCN(C(=O)c3cncs3)C2)n1 (stereo not drawn)	-2.03	-5.417
CC(=O)Nc1nc(C(=O)N2CCCC2c2noc(C3CC3)n2)cs1 (stereo not drawn)	6.529	-40.81
O=C(O)C(F)(F)F.O=S(=O)(c1cccs1)N1CCCC2(COCCN(c3cccnc3)C2)C1 (stereo not drawn)	53.4	-18.99
Cc1nc2ccc(C(=O)N3CCn4c(nnc4C4CC4)C3)cc2nc1C	-26.19	2.327
O=S(=O)(Cc1nc(C2CC2)no1)c1ccccc1F	-15.96	1.725
CNC(=O)CC1CCN(C(=O)Nc2ccc(-c3cc[nH]n3)cc2)CC1	-16.33	-4.922
O=S(=O)(CCN1CCCC1Cn1cncn1)c1ccccc1 (stereo not drawn)	-	-9.382
O=C(O)C(F)(F)F.[H][C@@]12CCN(Cc3ccco3)[C@]1([H])CC[C@H](COCC(=O)N(C)C)O2	-23.12	-1.636
COc1cccc2c1ccn2CC(=O)N1CCCC(C(=O)O)C1 (stereo not drawn)	-59.3	11.36
OCC1(Cc2cccc(Cl)c2)CCCN(c2ncccn2)C1 (stereo not drawn)	-52	34.08
O=S(=O)(CCC1CCCO1)NCc1ncc(-c2ccccc2)o1 (stereo not drawn)	7.448	-3.001
CCOc1ccccc1C(CC(=O)Nc1ccccc1F)NC(C)=O (stereo not drawn)	-20.38	-21.88
O=C(O)C(F)(F)F.O=C(O)C(F)(F)F.O=C(O)C(F)(F)F.[H][C@@]12CN(Cc3ccncc3)C[C@]1([H])OCCN2c1ccc(C)nn1	-	-0.8069
Cc1nc(C2CCCN(C(=O)CCCn3cccn3)C2)sc1C (stereo not drawn)	-	6.178
Cc1cccnc1CNCC1(O)CCCN(CC2CCC2)C1=O (stereo not drawn)	-23.9	14.31
O=C1CCCCCN1CCc1nc(-c2cccnn2)no1	-18.1	19.16
Cc1cccc(C(=O)N2CCc3ncnc(C4CCOC4)c3CC2)n1.O=C(O)C(F)(F)F (stereo not drawn)	-19.69	0.9613
COCCC1COC2(CCN(C(=O)c3ccco3)CC2)C1 (stereo not drawn)	3.698	-2.607
Cn1cc(CNCCNC(=O)Cc2ccccc2)c(-c2cccnc2)n1	-0.7157	-6.889
CC1(Cc2ccccn2)NCCc2[nH]cnc21 (stereo not drawn)	-14.96	-13.26
O=C(c1ccccn1)N1CCC(Cc2cnc3[nH]ccc3c2)CC1	-1.58	5.98
O=C(O)C(F)(F)F.O=C(O)C(F)(F)F.O=C(O)C(F)(F)F.[H][C@]12C[C@@H](C(=O)NCC3CC3)N(C)[C@@]1([H])CN(Cc1cccnc1OC)C2	-39.48	-14.63
CCc1nc(Cn2nc(COC)oc2=O)cs1	-	-0.8506
Cc1ccc(F)cc1-c1ccc(N)nc1	-170.2	6.423
[H][C@@]12CN(C(=O)NC3CCCC3)C[C@]1(C(=O)O)CN(c1ccccn1)C2	-46.99	5.619
Cc1cc(O)nc(C2CCN(C(=O)CO)CC2)n1	-10.5	-24.27
Oc1ccc(N2CCC(Cc3ccccc3)CC2)nn1	-55.85	-6.418
CCOc1ccc(-c2ccnc(COc3ccccc3)n2)cc1C(=O)O	-2.171	2.624
CCc1ccc(NC(=O)c2cnc(N3CCCC3)nc2C)cc1	14.19	13.88
O=C(CCNc1ncccn1)NCCc1ccn(-c2ccccc2)n1	19.3	-0.7312
CNCC(=O)N1CCCC(c2cccc(Nc3nc(C)cc(C)n3)n2)C1 (stereo not drawn)	-26.86	16.85
O=C(NC1CCCN(CCCc2ccccc2)C1)C1=CCCCC1 (stereo not drawn)	-1.699	5.323
COCCCNC(=O)c1cc(-c2cnc(N3CCOCC3)nc2)cn1C.O=C(O)C(F)(F)F	-249.8	-36.26
CN(CC(=O)Nc1cccnc1)C1CCCN(c2cccnn2)C1 (stereo not drawn)	-9.909	23.72
CCC(=O)N1CCC2(CC1)C(c1cccnc1)CC(=O)N2CCOC.O=C(O)C(F)(F)F (stereo not drawn)	-33.93	0.3473
CC(C)(C)n1ncc2c(=O)n(CC(=O)NCc3ccccc3Cl)cnc21	-5.342	2.831
CC(C)NC(=O)c1cc(-c2ccc(S(C)(=O)=O)cc2)c2cnn(C)c2n1	-	15.01
Cc1c[nH]c(CN2CCOC(c3ccc(Cl)cc3)C2)c(C)c1=O (stereo not drawn)	-53.45	-37.69
Cn1ncc2c1C(COCC1CC1)CN(Cc1cccnc1)C2 (stereo not drawn)	-23.59	0.2257
Cc1cc(C(=O)N[C@H]2CC[C@@]3(CCC(=O)N3)CC2)no1	-6.463	-10.06
Cc1ccc(N2CCCC(NCc3cccc4c3OCCO4)C2)nn1 (stereo not drawn)	-22.61	4.652
O=C(NCCN1CCCCC1)c1nc(-c2cccc3[nH]ccc23)no1	4.654	9.356
CCc1noc(C2CCCCN2C(=O)c2cc(C)on2)n1 (stereo not drawn)	-10.12	4.108
Cc1ccsc1CN(C)C(=O)Cn1nc(-c2ccc(F)cc2)oc1=O	32.87	0.9553
O=C(COc1ccc2c(c1)OCC2O)NCc1ccco1 (stereo not drawn)	5.518	10.35
COc1ccc(-c2cc(C3CCCNC3)ccn2)cc1.Cl (stereo not drawn)	-	19.51
O=S(=O)(NCCc1ccccc1C(F)(F)F)N1CCOCC1	-10.02	-15.7
COCCCN(C)S(=O)(=O)c1ccc(C(F)(F)F)cc1C#N	-6.411	-2.113
CN(CC(C)(CO)CO)C(=O)Nc1cc(Cl)cc(Cl)c1	-19.94	15.2
CCc1nnc2n1CCN(C(=O)c1cnc3c(cnn3C(C)C)c1)C2	-11.5	-8.654
CCC(=O)N1CCC(NCc2cc(C(F)(F)F)ccc2Cl)C1 (stereo not drawn)	6.665	-5.09